Results are given in words; binding and its absence hold for the method and conditions named. For some of these results: In cells and extracts the contact can be indirect. Some results given as binding are weak or reduced against the parent protein; the word gives no strength. For some of these results: Where a sequence is shown, tags or fusion partners need not be part of it.
T1: Gal4BD-Ada2 (full-length) (S. pombe) (UniProt Q9P7J7)
T1 sequence: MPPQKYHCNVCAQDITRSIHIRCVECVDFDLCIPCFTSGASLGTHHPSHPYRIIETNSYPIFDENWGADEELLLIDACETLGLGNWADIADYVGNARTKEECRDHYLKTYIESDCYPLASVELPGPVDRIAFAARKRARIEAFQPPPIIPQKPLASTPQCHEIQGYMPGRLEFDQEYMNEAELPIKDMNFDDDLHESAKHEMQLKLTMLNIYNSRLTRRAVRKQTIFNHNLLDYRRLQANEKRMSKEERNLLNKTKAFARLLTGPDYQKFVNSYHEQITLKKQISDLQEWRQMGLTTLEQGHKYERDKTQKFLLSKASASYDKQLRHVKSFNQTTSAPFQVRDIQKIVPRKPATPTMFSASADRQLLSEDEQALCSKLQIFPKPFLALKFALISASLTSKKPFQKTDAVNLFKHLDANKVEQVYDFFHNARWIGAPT

Sequences of proteins named here, by UniProt entry; tags and fusion partners are left off.
UniProt Q9UUK2: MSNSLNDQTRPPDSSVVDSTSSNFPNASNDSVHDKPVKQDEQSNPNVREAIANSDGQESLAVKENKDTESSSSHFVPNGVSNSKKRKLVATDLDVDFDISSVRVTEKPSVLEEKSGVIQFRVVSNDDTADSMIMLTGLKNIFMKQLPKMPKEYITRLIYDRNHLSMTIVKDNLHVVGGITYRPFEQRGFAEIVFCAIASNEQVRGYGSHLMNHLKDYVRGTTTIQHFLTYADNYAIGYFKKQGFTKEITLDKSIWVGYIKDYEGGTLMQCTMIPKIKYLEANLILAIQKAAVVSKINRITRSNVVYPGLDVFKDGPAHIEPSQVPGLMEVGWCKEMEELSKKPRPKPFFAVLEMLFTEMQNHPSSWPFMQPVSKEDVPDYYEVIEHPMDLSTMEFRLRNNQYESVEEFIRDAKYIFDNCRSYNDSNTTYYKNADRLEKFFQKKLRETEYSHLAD

T2: Gal4BD-Nse2 (aa2-178) (S. pombe) (UniProt Q4PIR3)
T2 sequence: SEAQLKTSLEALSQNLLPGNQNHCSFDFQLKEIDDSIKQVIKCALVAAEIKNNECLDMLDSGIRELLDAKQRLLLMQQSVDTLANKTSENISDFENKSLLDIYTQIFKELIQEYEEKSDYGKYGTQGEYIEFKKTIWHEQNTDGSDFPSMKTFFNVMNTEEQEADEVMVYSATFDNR

T3: Gal4BD-SMC5 CC arm (aa170-225 + 837-910) (S. pombe) (UniProt O13710)
T3 sequence: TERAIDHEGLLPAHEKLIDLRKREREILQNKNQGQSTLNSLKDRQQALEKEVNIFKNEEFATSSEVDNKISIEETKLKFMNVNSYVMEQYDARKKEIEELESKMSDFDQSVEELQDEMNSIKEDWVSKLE


Tests used:
[1] = target: Gal4BD-Gcn5 (full-length) (S. pombe) (UniProt Q9UUK2); assay: two-hybrid
[2] = target: T1, Gal4BD-Ada2 (full-length) (S. pombe); assay: two-hybrid
[3] = target: T2, Gal4BD-Nse2 (aa2-178) (S. pombe); assay: two-hybrid
[4] = target: T3, Gal4BD-SMC5 CC arm (aa170-225 + 837-910) (S. pombe); assay: two-hybrid
Gcn5-myc (S. pombe) = Gcn5-myc (S. pombe) (UniProt Q9UUK2); assay: co-IP

| binding [1] | binding [2] | Binder | also measured |
| --- | --- | --- | --- |
| binds | binds | pGADT7-Nse3(aa1-328) (protein, UniProt Q9Y7U4 1-328) MSQLSFTGKSSSKGRSRLTQEVRPTASQIIADEEASDLDEYEEDLEGSGNEDDFGPSMSRSSRGRKRRKGDPLELQSQFEERNETDAINFQLLVRNVVRYAICSQTSHNTITRKDIVQKAFPEGTSRNLFQSVFEEADRQLQLSFGFRLVAVTQSNRKKDMAVSQLRRPATSNANSSNLHRYWVLRSTLPMELQKDSRLIVDSVLDTAYYGFLMTVIAFIAVSHCSVGHSELQSFLQELLTEEETTPLHLDITRSLSLLVRQGYLDRVKDDTHNQFVYYIGSRAVTEISIEGLKSFVTEFFPDSDIDMDALLTEYRQEYQNQSSSSAA | – |
| – | binds | Gal4AD-Nse3 (aa200-307) (domain or fragment, UniProt Q9Y7U4 200-307) IVDSVLDTAYYGFLMTVIAFIAVSHCSVGHSELQSFLQELLTEEETTPLHLDITRSLSLLVRQGYLDRVKDDTHNQFVYYIGSRAVTEISIEGLKSFVTEFFPDSDID | – |
| – | – | Gal4AD-Ada2 (full-length) (protein, UniProt Q9P7J7 1-437) MPPQKYHCNVCAQDITRSIHIRCVECVDFDLCIPCFTSGASLGTHHPSHPYRIIETNSYPIFDENWGADEELLLIDACETLGLGNWADIADYVGNARTKEECRDHYLKTYIESDCYPLASVELPGPVDRIAFAARKRARIEAFQPPPIIPQKPLASTPQCHEIQGYMPGRLEFDQEYMNEAELPIKDMNFDDDLHESAKHEMQLKLTMLNIYNSRLTRRAVRKQTIFNHNLLDYRRLQANEKRMSKEERNLLNKTKAFARLLTGPDYQKFVNSYHEQITLKKQISDLQEWRQMGLTTLEQGHKYERDKTQKFLLSKASASYDKQLRHVKSFNQTTSAPFQVRDIQKIVPRKPATPTMFSASADRQLLSEDEQALCSKLQIFPKPFLALKFALISASLTSKKPFQKTDAVNLFKHLDANKVEQVYDFFHNARWIGAPT | binding [3]: binds; binding [4]: binds |
| – | – | Nse4-FLAG (protein, UniProt Q6BDR8 1-300) MSSIDKRDLRKRYRNLINKVQESRLELVDEENNNLYETITTANDLFSSVDAPTEATLDALLLTKTVDLASIKARQLHIGRPKFNIELFTKNIKQFLNYPTSHSNVTRIQEIDTAWSRLGKLASNCEKQPASLNLMVGPLSFRKKERNIQRRERLQKAPNVLTQPTMLNERNITTQENNTTKNVLHISRLLQAHQPVNFLKFITNPQSYPQTVENLFYVSFLFKEGKAALVENESGILMLETRIPPTDDQVVAGEIRNIQLVLDMTMDLYENIIKEYNIKESIIPTRAPVETSTNSNTWYG | binding (Gcn5-myc (S. pombe)): binds weakly |
| binds | – | Gal4AD-Nse3 (aa1-190) (domain or fragment, UniProt Q9Y7U4 1-190) MSQLSFTGKSSSKGRSRLTQEVRPTASQIIADEEASDLDEYEEDLEGSGNEDDFGPSMSRSSRGRKRRKGDPLELQSQFEERNETDAINFQLLVRNVVRYAICSQTSHNTITRKDIVQKAFPEGTSRNLFQSVFEEADRQLQLSFGFRLVAVTQSNRKKDMAVSQLRRPATSNANSSNLHRYWVLRSTLP | – |
